{"source": "PubChem BioAssay AID1347426", "about": "(Functional Genomics Laboratory (NCATS/FGL), 2020)", "note": "Hit rate of the full screen: of about 31,000 sequences, about 1,400 (4.5%) were called active.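 How the source made its calls: active means median seed-adjusted z-score above 1 or below -1; inactive means the rest.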 The list shows a part of the results.", "data": [{"assay": "Novel Modifiers of Survival Motor Neuron (SMN) Protein: Gene Identification via Genome-wide siRNA Screen;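 further: luminescence tracks full-length SMN protein made from the SMN2 reporter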", "conditions": "HEK293T SMN2-luciferase reporter, siRNA knockdown, 72 h; actives lie on both sides", "method_in_brief": "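siRNA screen, 10418 genes ×3 siRNAs; 1 pmol/well, lipid reverse transfection into HEK293T SMN2-luc reporter line. 72 h, 37 °C, 5% CO2; ONE-Glo readout. Data: neg-ctrl normalized, log10, MAD; hit = MAD >1.0 or < -1.0.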", "values": [{"sequence": "AGAUGAAACGGACCCUUUUTT against RGS2", "median seed-adjusted z-score": "inactive: 0.00236"}, {"sequence": "CCAGGUUCUUAGAGUAGUATT against ME1", "median seed-adjusted z-score": "inactive: -0.258"}, {"sequence": "GCAAGUGGUUUGUCAGUAATT against B3GALT5", "median seed-adjusted z-score": "inactive: 0.144"}, {"sequence": "CCUUCACACGUACCACAAATT against TEKT2", "median seed-adjusted z-score": "inactive: -0.349"}, {"sequence": "GAGAGAUCCUCAGACAGAATT against HTATSF1", "median seed-adjusted z-score": "inactive: -0.411"}, {"sequence": "CAGAUGCAAUUGUCAAAUUTT against TKTL2", "median seed-adjusted z-score": "inactive: -0.0379"}, {"sequence": "ACUCUAUAUUGAUGCCCUATT against DGAT2L4", "median seed-adjusted z-score": "inactive: 0.145"}, {"sequence": "AGGUUUCAUUGAUAGGCUATT against ZNF222", "median seed-adjusted z-score": "inactive: 0.13"}, {"sequence": "GGCUACCAGUUUGUGCAGATT against RHOT2", "median seed-adjusted z-score": "inactive: 0.263"}, {"sequence": "AAUCACAACUCCUAAAAGATT against POLR2J3", "median seed-adjusted z-score": "active: -5.42"}, {"sequence": "GGGUCUUACUGAUUCCACATT against A4GNT", "median seed-adjusted z-score": "inactive: 0.213"}, {"sequence": "CCUAGAAGCUUGUUCCAAUTT against STRADA", "median seed-adjusted z-score": "inactive: 0.415"}, {"sequence": "GUACCUUAUUCUACCACUATT against NDUFA12", "median seed-adjusted z-score": "inactive: -0.377"}, {"sequence": "CAGGAAGCAUUGUCGGGCATT against LDHD", "median seed-adjusted z-score": "inactive: 0"}, {"sequence": "ACAUAUAAUAUGUAUGAGATT against ZNF322A", "median seed-adjusted z-score": "inactive: 0.0884"}, {"sequence": "CCAUUGGAUUCGCUCUGAATT against CASR", "median seed-adjusted z-score": "inactive: 0.111"}, {"sequence": "CCUACUUUACGGGUUCUAATT against TXNDC17", "median seed-adjusted z-score": "inactive: 0.245"}, {"sequence": "CGUUUAACGUGGUGCUGUUTT against GPR32", "median seed-adjusted z-score": "active: -1.2"}, {"sequence": "GCAAUAGUCAGGAGCGAUATT against PPP1R10", "median seed-adjusted z-score": "active: 1.41"}, {"sequence": "GGGAUAAGUGGGACCAGUATT against CHERP", "median seed-adjusted z-score": "inactive: 0.155"}, {"sequence": "GCACGUACCUCAUUCAGCATT against ZNF550", "median seed-adjusted z-score": "inactive: 0.131"}, {"sequence": "AGUUCACCCUCUUCAAGAATT against ZFYVE19", "median seed-adjusted z-score": "inactive: 0.0704"}, {"sequence": "CGGAGUUCACAGCUCUAUATT against BCL2L2", "median seed-adjusted z-score": "inactive: 0"}, {"sequence": "CAUUGUAAAUUAUGCGAGUTT against ZFR", "median seed-adjusted z-score": "inactive: -0.048"}, {"sequence": "GCAUCUUCGUGGAACUGCATT against EPHA10", "median seed-adjusted z-score": "inactive: 0.502"}, {"sequence": "GCAUAGCCUAUUUACGGAATT against UNC5D", "median seed-adjusted z-score": "inactive: -0.132"}, {"sequence": "CCGCCGUUAUUAAACGAUUTT against HBS1L", "median seed-adjusted z-score": "inactive: -0.509"}, {"sequence": "CCUAACCUGCUGUCUCUUATT against ZNF646", "median seed-adjusted z-score": "inactive: 0"}, {"sequence": "GUCUUAGAAUGUGAACGUATT against CCNL1", "median seed-adjusted z-score": "active: -1.26"}, {"sequence": "AGGGCUACGCUGACCUGUATT against CYB561", "median seed-adjusted z-score": "inactive: 0"}, {"sequence": "GUGAGGAGUCCAUCCUGUATT against VPS16", "median seed-adjusted z-score": "inactive: 0.306"}, {"sequence": "CUGUCAUACUUUGACCGAATT against TJP1", "median seed-adjusted z-score": "inactive: 0.0302"}, {"sequence": "CAAGAGCUGUCGUGACUCATT against GPR120", "median seed-adjusted z-score": "inactive: -0.578"}, {"sequence": "GGCAUACCCAACAACCUCATT against GALE", "median seed-adjusted z-score": "inactive: -0.153"}, {"sequence": "GGAUGUGAAUGUCGCUAUUTT against TUBA8", "median seed-adjusted z-score": "inactive: -0.0453"}, {"sequence": "GUAGCUAAAUCAUAUAACATT against CGA", "median seed-adjusted z-score": "inactive: 0.0904"}, {"sequence": "GAGAGACAGUUAUUAAGGATT against DCTN1", "median seed-adjusted z-score": "inactive: 0.25"}, {"sequence": "GAUCCGACUGGAGAAUGAATT against KRT10", "median seed-adjusted z-score": "inactive: 0.493"}, {"sequence": "AGGACCACGCGUCUACUUUTT against PPP1R14B", "median seed-adjusted z-score": "inactive: 0.205"}, {"sequence": "GGAAUGACAUGUACGAUGATT against USP7", "median seed-adjusted z-score": "inactive: 0.105"}, {"sequence": "GGAUGAGAGAGGACAUGCATT against STK32C", "median seed-adjusted z-score": "inactive: -0.311"}, {"sequence": "GGCUAUUGAUAGAGUUAAATT against PRIM2", "median seed-adjusted z-score": "inactive: -0.0161"}, {"sequence": "GAGUUAUUGUGGAAGUAGATT against PCDHA4", "median seed-adjusted z-score": "inactive: -0.268"}, {"sequence": "AGAACAAGCUUUCCAAUCATT against ME3", "median seed-adjusted z-score": "inactive: 0.166"}, {"sequence": "GAAUUUGCAACCAAGCUAATT against SPTAN1", "median seed-adjusted z-score": "inactive: -0.233"}, {"sequence": "ACCUCCUUGUGAUAACGGATT against KLRG1", "median seed-adjusted z-score": "inactive: -0.0324"}, {"sequence": "CGAGUGUUCCCGGACAACATT against PODNL1", "median seed-adjusted z-score": "inactive: -0.448"}, {"sequence": "GGUUUGAGCUUACUCUUCATT against ACCN5", "median seed-adjusted z-score": "inactive: 0.227"}, {"sequence": "GCCUGAAGUUUCGAAAGAATT against CXCR6", "median seed-adjusted z-score": "inactive: 0.71"}, {"sequence": "CAGAUCUUAUUAAGAGGUATT against ATP8A2", "median seed-adjusted z-score": "inactive: 0"}, {"sequence": "GGAUGACUGAGUACCUGAATT against BCL2", "median seed-adjusted z-score": "inactive: 0"}, {"sequence": "CGUUGAGAGUACUACCGAATT against SEC24C", "median seed-adjusted z-score": "inactive: 0.163"}, {"sequence": "UGGUCCAGGUGAUUCGGCATT against TRIM41", "median seed-adjusted z-score": "inactive: -0.164"}, {"sequence": "CGCCUUUGCUCAUGACAUUTT against NOS2A", "median seed-adjusted z-score": "inactive: 0.419"}, {"sequence": "GCGGGUACUUCGUUCCUUATT against SLC16A11", "median seed-adjusted z-score": "inactive: -0.396"}, {"sequence": "GCACCUUUGCAUUAUGUUATT against VN1R2", "median seed-adjusted z-score": "inactive: -0.151"}, {"sequence": "AAGUUUUCAUCAUCCGCAATT against SOAT2", "median seed-adjusted z-score": "inactive: 0.612"}, {"sequence": "CUCUCUCAACGAUGCCUAUTT against DUSP9", "median seed-adjusted z-score": "inactive: 0.61"}, {"sequence": "UGCUAGUCCUGGGAACAGATT against PPM1J", "median seed-adjusted z-score": "inactive: -0.901"}, {"sequence": "GGCUCACAAUCACUUGAUUTT against ZNF578", "median seed-adjusted z-score": "inactive: -0.808"}, {"sequence": "GGAGGAGUGAGAAUCAGAATT against ZBED1", "median seed-adjusted z-score": "inactive: 0.0567"}, {"sequence": "GCAAGAUUCGGGUUAUUGATT against CORO2A", "median seed-adjusted z-score": "inactive: 0"}, {"sequence": "ACAAGUUACUGAACCAGGATT against PRKCG", "median seed-adjusted z-score": "inactive: 0"}, {"sequence": "CCAUCAACGCCAACGUGCATT against ELA2", "median seed-adjusted z-score": "inactive: 0.586"}, {"sequence": "GGAGCAUUUUGAUACCAGATT against CCND1", "median seed-adjusted z-score": "inactive: -0.912"}, {"sequence": "GCAAAUUGCUUGCGCCUGATT against XIRP2", "median seed-adjusted z-score": "inactive: -0.404"}, {"sequence": "GACCCGAAAAUGUUGCGGATT against IRX5", "median seed-adjusted z-score": "inactive: -0.373"}, {"sequence": "CCAUUGAUCUGCACUACUATT against NUP85", "median seed-adjusted z-score": "inactive: 0.948"}, {"sequence": "GCACAAUUGAUGACACCAUTT against CLINT1", "median seed-adjusted z-score": "inactive: 0.332"}]}]}
